From PubChem BioAssay AID651640 (Broad Institute, 2012)
Screen size: about 350,000 compounds; about 6,000 (1.7%) were called active. Inconclusive means that the source gave no clear call. Such entries were picked first, then a sample of the others. Rule as the data show it: active = CPE inhibition above about 20% (passing the limit was not always enough); inconclusive = no clear call, values can overlap the other calls; tested in BHK-21 cells.

Test: protection of cells from dengue 2 killing – plate reader, single concentration, primary screen (AID 651640);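 also: 0% = median of neutral control wells and 100% = median of positive control wells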
Settings: DENV2-infected cells, cytopathic effect rescue, at 9.99 µM, hits give high values

SMILES	CPE inhibition
c1ccc(CSc2nnc(Cc3ccccc3)o2)cc1	inconclusive: 39.3%
O=C(C1CCOCC1)N1CC(=O)N2[C@H](CO)[C@@H](c3ccc(C4=CCCC4)cc3)[C@H]2C1	inconclusive: 33.9%
C=C(NC(=O)C(=C)NC(=O)c1csc(C2=NC3c4csc(n4)C4NC(=O)c5csc(n5)C(C(C)(O)C(C)O)NC(=O)C5CSC(=N5)/C(=C/C)NC(=O)C(C(C)O)NC(=O)c5csc(n5)C3(CC2)NC(=O)C(C)NC(=O)C(=C)NC(=O)C(=C)NC(=O)C(C(C)C)NC2C=Cc3c(C(C)O)cc(nc3C2O)C(=O)OC4C)n1)C(N)=O (configuration not stated)	active: 60.5%
C[C@@H]1CN([C@H](C)CO)C(=O)CCCn2cc(nn2)CO[C@H]1CN(C)C(=O)Nc1ccc(N2CCN(C)CC2)cc1	inactive: -5.78%
COC(=O)c1ccc2nc(-c3ccc(C)cc3)c(CC(C)(C)C)n2c1	inactive: -2.43%
CCN(C(=O)COC(=O)C1CC1)c1c(N)n(Cc2ccccc2)c(=O)[nH]c1=O	inconclusive: 31.2%
COc1cc(S(=O)(=O)N2CCN=C2c2ccccc2)ccc1Cl	inconclusive: 43.2%
CC(=O)c1cccc(NC(=O)Cn2cnc(S(=O)(=O)N3CCCCC3)c2)c1	inactive: 3.41%
COCC(=O)N(C)C[C@@H]1Oc2cc(C#CCC(C)C)ccc2S(=O)(=O)N([C@@H](C)CO)C[C@@H]1C	inactive: -6.44%
COc1ccc2[nH]c(C(=O)N3CCCN(Cc4ccc(F)cc4)CC3)cc2c1	inconclusive: 23.1%
O=C(N/N=C/c1ccccn1)c1cc(C2CC2)[nH]n1	inactive: -1.91%
O=C(CN1C(=O)c2ccccc2S1(=O)=O)NCc1cccs1	inconclusive: 26.9%
CCOc1cc(N2CCOCC2)c(OCC)cc1NC(=O)[C@H](C)NC(=O)c1ccco1	active: 37.5%
O=C(c1ccc(F)cc1)N1CC(=O)N2[C@H](CO)[C@@H](c3ccc(/C=C/c4ccccc4)cc3)[C@@H]2C1	inconclusive: 25.5%
COc1cccc(S(=O)(=O)N[C@H]2CC[C@@H](CCN)O[C@H]2CO)c1	inconclusive: 25.7%
CCCN(C)C[C@H]1Oc2ncc(C#CCN(C)C)cc2C(=O)N([C@H](C)CO)C[C@H]1C	inconclusive: 21.3%
COc1ccc(CN(C)C[C@@H]2Oc3c(NC(=O)Nc4ccccc4)cccc3C(=O)N([C@H](C)CO)C[C@H]2C)cc1	active: 29.5%
Cc1noc(C)c1S(=O)(=O)Nc1ccc2c(c1)C(=O)N([C@@H](C)CO)C[C@@H](C)[C@@H](CN(C)S(=O)(=O)c1ccccc1)OCCCC[C@@H](C)O2	inactive: -8.66%
OC(c1ccc(Cl)c(F)c1)c1ncc(-c2cccc(F)c2)[nH]1 (configuration not stated)	inconclusive: 44.6%
COc1ccc2c3c(n(C)c2c1)[C@H](CO)N(C(C)=O)CC31CCN(C(=O)NC(C)C)CC1	inconclusive: 23.3%
COc1ccc2c3c([nH]c2c1)[C@H](CO)N(C(=O)Nc1ccc(F)cc1)CC31CCN(C(=O)Nc2ccccc2)CC1	active: 21%
CC(C)C#Cc1cnc2c(c1)C(=O)N([C@H](C)CO)C[C@@H](C)[C@H](CN(C)C(=O)Nc1ccccc1)O2	inactive: -3.35%
Cc1cc(NC(=O)c2ccc(Cl)cc2)n(CCC#N)n1	inactive: 9.42%

A different layout for 4 compounds above.

| SMILES | CPE inhibition |
| --- | --- |
| C=C(NC(=O)C(=C)NC(=O)c1csc(C2=NC3c4csc(n4)C4NC(=O)c5csc(n5)C(C(C)(O)C(C)O)NC(=O)C5CSC(=N5)/C(=C/C)NC(=O)C(C(C)O)NC(=O)c5csc(n5)C3(CC2)NC(=O)C(C)NC(=O)C(=C)NC(=O)C(=C)NC(=O)C(C(C)C)NC2C=Cc3c(C(C)O)cc(nc3C2O)C(=O)OC4C)n1)C(N)=O (configuration not stated) | active: 60.5% |
| COc1cc(S(=O)(=O)N2CCN=C2c2ccccc2)ccc1Cl | inconclusive: 43.2% |
| OC(c1ccc(Cl)c(F)c1)c1ncc(-c2cccc(F)c2)[nH]1 (configuration not stated) | inconclusive: 44.6% |
| CC(C)C#Cc1cnc2c(c1)C(=O)N([C@H](C)CO)C[C@@H](C)[C@H](CN(C)C(=O)Nc1ccccc1)O2 | inactive: -3.35% |

Further compounds.

SMILES	CPE inhibition
C[C@@H]1CCCCO[C@H](CN(C)Cc2ccc(C(=O)O)cc2)[C@H](C)CN([C@@H](C)CO)C(=O)c2cc(NC(=O)c3ccccc3)ccc2O1	inconclusive: 56%
COC(=O)c1cc(-c2ccc(Br)cc2)on1	inconclusive: 20%
Cc1ccccc1C(=O)O[C@H]1[C@H](Cc2ccccc2)NS(=O)(=O)[C@H]2CC3C=C[C@]12O3	inconclusive: 37.8%
O=S(=O)(c1ccc2c(c1)CCN2)N1CCCC1	inconclusive: 32.7%
CN(C)CCNc1ncnc2c1ncn2[C@H]1CN(Cc2ccc(Cl)cc2)C[C@@H](CO)O1	inconclusive: 40.7%
Cc1ccc(S(=O)(=O)N(C)C[C@@H]2Oc3ccc(NC(=O)Cc4cn(C)c5ccccc45)cc3CC(=O)N([C@H](C)CO)C[C@H]2C)cc1	inconclusive: 36.9%
CO[C@@H]1CN(C)C(=O)c2cc(NC(=O)C3CCC3)ccc2OC[C@@H](C)N(Cc2ccncc2)C[C@@H]1C	active: 41.2%
CCOC(=O)c1sc(NC(=O)CCN2CCN(C)CC2)c(C(=O)OCC)c1C	inconclusive: 28.1%
O=C(COC(=O)c1cccc(F)c1)Nc1cccc(S(=O)(=O)N2CCOCC2)c1	inactive: -6%
CC(=O)Oc1cc(C(=O)OCC(=O)NC23CC4CC(CC(C4)C2)C3)cc(OC(C)=O)c1OC(C)=O	inactive: 3.42%
Cn1cnnc1SCC(=O)Nc1ccc(S(=O)(=O)N2CCOCC2)cc1	inconclusive: 25.6%
O=C(NCc1ccc(F)cc1)[C@H]1[C@H](CO)[C@H]2Cn3c(cccc3=O)[C@@H]1N2CC1CCCC1	active: 42.9%
COc1ccc2c3c(n(C)c2c1)[C@H](CO)N(C(=O)Nc1ccc(F)cc1)CC31CCN(C(=O)NC2CCCC2)CC1	inactive: -1.74%
N#CC1=C2SCN(Cc3ccccc3)CN2C(=O)CC1c1cccs1 (configuration not stated)	inconclusive: 51.7%
CCN1C[C@@H]2[C@@H]3C(=O)N(Cc4ccccc4)C(=O)[C@@H]3[C@](CC)(C(=O)OC)N2C1=NC1CCCCC1	inconclusive: 30.9%
COc1ccc([C@H]2C(C(=O)O)=C[C@@H](CC3CCCC3)N2S(=O)(=O)c2ccc(C)cc2)cc1OC	inconclusive: 52.2%
C[C@@H]1CN([C@H](C)CO)C(=O)c2cc(NC(=O)Nc3ccc(C(F)(F)F)cc3)ccc2O[C@@H]1CN(C)Cc1ccc(Cl)c(Cl)c1	active: 45.8%
CN(C)C(=O)c1cccc(-c2ccccc2[C@@H]2[C@@H](C#N)N(C(=O)C3CC3)[C@@H]2CO)c1	active: 45.6%
O=C(COC(=O)CN1CCSC1=O)Nc1ccc(F)cc1Cl	inconclusive: 24.4%
Cc1noc(C)c1S(=O)(=O)Nc1ccc2c(c1)C(=O)N([C@H](C)CO)C[C@H](C)[C@@H](CN(C)S(=O)(=O)c1cccs1)OCCCC[C@H](C)O2	inconclusive: 41.7%
COc1ccc(NC(=O)Cc2csc(NC(=O)Nc3ccccc3OC)n2)c(OC)c1	inconclusive: 20.1%
COc1ccccc1C#Cc1cnc2c(c1)C(=O)N([C@H](C)CO)C[C@@H](C)[C@@H](CN(C)C(=O)CC1CC1)O2	inactive: -3.32%
CO[C@@H]1CN(C)C(=O)c2cc(NC(=O)C3CC3)ccc2OC[C@H](C)N(C(=O)NC(C)C)C[C@@H]1C	inactive: -0.649%

SMILES	CPE inhibition
COc1cccc(CN(C)C(=O)CC[C@H]2O[C@@H](n3ccc(=O)[nH]c3=O)[C@H](O)[C@@H]2O)c1	inconclusive: 23.2%
COc1ccc(S(=O)(=O)N[C@@H]2CC[C@H](CC(=O)N3CCN(c4ccccc4)CC3)O[C@H]2CO)cc1	inactive: 1.84%
CCCNC(=O)C[C@H]1CC[C@@H]2[C@@H](COc3ccc(NC(=O)c4cccc(OC)c4)cc3C(=O)N2C)O1	inconclusive: 64.9%
Cc1nc2ccccc2c2oc(C(=O)NCCN3CCN(C)CC3)cc12	active: 22.3%
C=C(C)C(=O)N1CC2(CC(c3cccc(NC(=O)COc4ccc(Cl)cc4)c3)=NO2)C[C@@H]1C(N)=O (some centres not stated)	active: 34%
Cn1c(=O)[nH]c(=O)c2c1nc(N1CCCCC1)n2CCSc1ncccn1	inconclusive: 25.2%
CCOC(=O)[C@H]1[C@H]2COc3ccc(Cl)cc3[C@@H]2N2C(=O)CN(Cc3ccco3)C(=O)[C@@]12C	inconclusive: 24.1%
C[C@@H]1CN([C@H](C)CO)S(=O)(=O)c2ccc(-c3ccccc3)cc2O[C@@H]1CN(C)Cc1cccc(F)c1	inactive: 7.78%
C[C@@H]1CCCCO[C@@H](CN(C)C(=O)Nc2ccc3c(c2)OCO3)[C@H](C)CN([C@@H](C)CO)C(=O)c2cc(NC(=O)Nc3ccccc3)ccc2O1	inactive: 2.21%
C[C@H](CO)N1C[C@H](C)[C@H](CN(C)S(=O)(=O)c2cn(C)cn2)Oc2ccc(NC(=O)Nc3ccc4c(c3)OCO4)cc2CC1=O	inconclusive: 32.9%
CC(C)/C=C/C(=O)N1CCC(N2CCC(C(=O)NCC3CCCO3)CC2)CC1 (configuration not stated)	inconclusive: 41.8%
CO[C@H]1CN(C)C(=O)c2ccc(NC(=O)c3ccc(Oc4ccccc4)cc3)cc2OC[C@@H](C)NC[C@H]1C	active: 31.4%
COc1ccc(NC(=O)CS(=O)(=O)c2ccccc2Cl)cc1	inconclusive: 23.8%
CN1C(=O)c2cc(NC(=O)Nc3ccccc3)ccc2OC[C@@H]2O[C@@H](CC(=O)O)CC[C@@H]21	active: 56.6%
Cc1ccc(NC(=S)NC2CCSc3ccccc32)cc1 (configuration not stated)	inactive: 3.42%
C[C@@H]1CN([C@H](C)CO)C(=O)CCCn2cc(nn2)CO[C@H]1CN(C)S(=O)(=O)c1ccc(-n2cccn2)cc1	inconclusive: 22%
COc1ccc(CNC(=O)CCCCCNC(=O)N2CCn3c2nc2ccccc23)cc1	inconclusive: 39.5%
COc1ccc2c3c(n(C)c2c1)[C@H](CO)N(C(=O)c1cnccn1)CC31CN(C(=O)c2ccncc2)C1	inactive: -1.32%
Cc1ccc(SCC(=O)Nc2ccc(-c3nc4ccccc4[nH]3)cc2)cc1	active: 38%
C[C@H](CO)N1C[C@H](C)[C@H](CN(C)CC2CCCCC2)OCCCC[C@H](C)Oc2ccc(NC(=O)Nc3ccc(F)cc3)cc2C1=O	active: 24.5%
CCN1CCN(c2ccc(Cl)cc2NC(=O)c2ccc(-n3nc(C)cc3C)cc2)CC1	inconclusive: 88.4%
